Laboratory results reported in PMC11958753.
No constants are given. Whether binding was seen depends on the method and setting. In cells and extracts the contact can be indirect. Some binding calls cover weakened binding; strength is not graded here.

How the values were obtained:
[1] = target: T1, activating transcription factor 4 (ATF4) (rat (endogenous in primary cortical neurons)) (UniProt Q9ES19); experiment: proximity ligation; Duolink In situ Red PLA on fixed, permeabilised primary rat cortical neurons with rabbit anti-CREB3L2 and mouse anti-ATF4; puncta counted per area of soma or in nuclei; neurons treated with vehicle, Aβ42 (8 h), thapsigargin, bortezomib (5 h), nelfinavir or BtdCPU
T1 sequence: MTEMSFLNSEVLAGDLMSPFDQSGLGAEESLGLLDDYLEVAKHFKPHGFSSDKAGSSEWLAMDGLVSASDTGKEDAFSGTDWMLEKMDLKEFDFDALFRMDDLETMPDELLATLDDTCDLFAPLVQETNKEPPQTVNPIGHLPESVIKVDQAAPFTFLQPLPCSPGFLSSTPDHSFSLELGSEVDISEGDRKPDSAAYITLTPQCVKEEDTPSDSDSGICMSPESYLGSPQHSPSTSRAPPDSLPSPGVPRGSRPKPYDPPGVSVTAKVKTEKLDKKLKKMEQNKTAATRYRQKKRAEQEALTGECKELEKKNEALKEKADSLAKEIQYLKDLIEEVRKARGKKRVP

[2] = target: T1, activating transcription factor 4 (ATF4) (rat (endogenous in primary cortical neurons)); experiment: co-IP; anti-ATF4 (D4B8) or control IgG cross-linked to protein A magnetic beads, mixed with 500 µg RIPA lysate of cortical neurons overnight at 4 °C; washed with RIPA; eluted with 0.2 M glycine pH 2.5; CREB3L2 detected by immunoblot; neurons treated with DMSO, thapsigargin or bortezomib for 5 h

binding [1]: binds | binding [2]: binds
B1: cyclic AMP-responsive element-binding protein 3-like protein 2 (CREB3L2) (protein, UniProt Q6QDP7 1-521)
chain: MEVLESGEQSVLQWDRKLSELSEPGETEALMYHTHFSELLDEFSQNVLGQLLNDPFLSEKSVSMEVEPSPTSPAPLIQAEHSYSLSEEPRAQSPFTHVAASDGFNDEEVESEKWYLSTEFPSATIKTEPITEEQPPGLVPSVTLTITAISTPFEKEESPLDMSAGGDSSCQTLIPKIKLEPHEVDQFLNFSPKEASVDQLHLPPTPPSSHSSDSEGSLSPNPRLHPFSLSQAHSPGRAMPRGPSALSTSPLLTAPHKLQGSGPLVLTEEEKRTLIAEGYPIPTKLPLTKSEEKALKKIRRKIKNKISAQESRRKKKEYMDSLEKKVESCSTENLELRKKVEVLENTNRTLLQQLQKLQTLVMGKVSRTCKLAGTQTGTCLMVVVLCFAVAFGSLFQGYGLYPSATKMALPSQHPLSEPYTASVVRSRNLLIYEEHSSLEESSSPASAGELGGWDRGSSLLRASSGLEALPEVDLPHFIISKETSLEKSVLLELQQHLVSSKLEGNETLKVVELERRVNATF
